According to PubChem BioAssay AID2073 (Sanford-Burnham Center for Chemical Genomics, 2009):
In all, about 290,000 compounds went through this assay and about 570 (0.2%) were called active. The inconclusive results got no clear call from the source; some entries with a clear call stand among them for comparison. Rule as the data show it: active = inhibition mostly above about 51% (no sharp cut-off); inconclusive = no clear call, values can overlap the other calls; inactive = mostly below about 53%.

Amino acid sequences for entries named in this document (tags omitted).
UniProt Q00975, whole entry, looked up: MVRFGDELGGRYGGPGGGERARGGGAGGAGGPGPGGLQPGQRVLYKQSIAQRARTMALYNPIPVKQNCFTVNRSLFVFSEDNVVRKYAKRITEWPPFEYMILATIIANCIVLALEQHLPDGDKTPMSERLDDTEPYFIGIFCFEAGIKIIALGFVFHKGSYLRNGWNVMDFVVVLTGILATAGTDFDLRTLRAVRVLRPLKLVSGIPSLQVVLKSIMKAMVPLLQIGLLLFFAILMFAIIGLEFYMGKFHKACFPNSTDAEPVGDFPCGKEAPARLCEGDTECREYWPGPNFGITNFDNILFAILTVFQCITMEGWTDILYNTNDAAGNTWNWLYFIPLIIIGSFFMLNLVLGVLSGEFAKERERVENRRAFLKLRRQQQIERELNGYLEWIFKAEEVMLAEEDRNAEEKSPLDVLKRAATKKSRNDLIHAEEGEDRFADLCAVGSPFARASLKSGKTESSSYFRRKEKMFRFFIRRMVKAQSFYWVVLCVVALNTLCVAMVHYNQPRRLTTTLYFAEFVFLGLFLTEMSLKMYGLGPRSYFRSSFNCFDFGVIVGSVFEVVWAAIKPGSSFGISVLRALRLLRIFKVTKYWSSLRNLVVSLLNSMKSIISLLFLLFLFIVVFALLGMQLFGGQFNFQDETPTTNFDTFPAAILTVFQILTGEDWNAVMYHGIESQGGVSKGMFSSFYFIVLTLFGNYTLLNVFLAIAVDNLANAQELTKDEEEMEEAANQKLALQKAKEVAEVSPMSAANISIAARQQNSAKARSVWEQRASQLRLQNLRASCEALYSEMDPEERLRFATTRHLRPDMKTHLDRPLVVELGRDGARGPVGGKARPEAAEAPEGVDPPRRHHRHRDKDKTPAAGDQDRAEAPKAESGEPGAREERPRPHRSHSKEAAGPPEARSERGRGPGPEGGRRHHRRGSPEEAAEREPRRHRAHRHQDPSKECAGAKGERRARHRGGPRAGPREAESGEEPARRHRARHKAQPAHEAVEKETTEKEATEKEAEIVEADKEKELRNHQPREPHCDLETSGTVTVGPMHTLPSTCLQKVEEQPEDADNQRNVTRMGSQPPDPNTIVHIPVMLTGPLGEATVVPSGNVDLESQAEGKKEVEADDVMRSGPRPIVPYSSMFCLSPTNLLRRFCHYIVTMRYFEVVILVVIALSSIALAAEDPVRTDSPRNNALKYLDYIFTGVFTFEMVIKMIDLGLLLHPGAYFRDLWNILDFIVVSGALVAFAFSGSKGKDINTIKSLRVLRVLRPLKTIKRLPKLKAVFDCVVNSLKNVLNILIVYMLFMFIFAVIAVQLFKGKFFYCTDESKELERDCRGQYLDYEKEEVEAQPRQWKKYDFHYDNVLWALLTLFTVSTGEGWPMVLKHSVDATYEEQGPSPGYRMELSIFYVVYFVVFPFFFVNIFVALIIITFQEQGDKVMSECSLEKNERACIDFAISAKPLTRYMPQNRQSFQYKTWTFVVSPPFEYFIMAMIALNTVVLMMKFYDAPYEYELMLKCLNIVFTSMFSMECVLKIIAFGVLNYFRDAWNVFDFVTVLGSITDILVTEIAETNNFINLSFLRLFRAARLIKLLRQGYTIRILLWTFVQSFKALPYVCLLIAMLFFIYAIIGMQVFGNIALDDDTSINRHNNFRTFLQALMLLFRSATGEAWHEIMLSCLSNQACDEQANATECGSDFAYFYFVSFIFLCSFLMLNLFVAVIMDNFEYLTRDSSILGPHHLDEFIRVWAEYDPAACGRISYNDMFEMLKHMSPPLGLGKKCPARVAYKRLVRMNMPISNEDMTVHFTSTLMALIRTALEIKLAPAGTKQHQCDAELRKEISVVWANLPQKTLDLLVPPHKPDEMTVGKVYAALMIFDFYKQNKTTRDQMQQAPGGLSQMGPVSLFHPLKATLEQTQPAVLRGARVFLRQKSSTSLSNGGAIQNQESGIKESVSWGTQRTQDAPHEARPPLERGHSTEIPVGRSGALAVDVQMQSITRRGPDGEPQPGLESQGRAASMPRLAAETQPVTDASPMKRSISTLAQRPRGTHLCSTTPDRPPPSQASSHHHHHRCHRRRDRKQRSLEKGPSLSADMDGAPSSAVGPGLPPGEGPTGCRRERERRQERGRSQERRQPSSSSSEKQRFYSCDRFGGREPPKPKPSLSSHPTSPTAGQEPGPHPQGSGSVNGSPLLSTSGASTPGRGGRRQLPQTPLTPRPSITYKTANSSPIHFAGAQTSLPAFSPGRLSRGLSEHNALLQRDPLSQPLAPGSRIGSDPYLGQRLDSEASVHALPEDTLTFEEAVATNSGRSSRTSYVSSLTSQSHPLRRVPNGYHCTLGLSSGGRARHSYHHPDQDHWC

target: Voltage-dependent N-type calcium channel subunit alpha-1B (Homo sapiens) (UniProt Q00975); experiment: disruptors of CaV2.2 binding to Mint1 – biochemical, HTRF (AID 2073); conditions: HTRF protein-protein interaction, Mint1-CaV2.2; at 20 µM; stronger effect = higher value

SMILES | inhibition
COC(=O)Nc1nnc(/C=C/c2ccccc2)s1 | inconclusive: 59.3%
CCN(CC)CC#CCC(C)(c1ccccc1)c1ccccc1 | inconclusive: 52.8%
NC(=O)/C(=N\OC(=O)c1ccco1)c1nc(-c2ccc(Br)cc2)cs1 | inconclusive: 67.1%
CCOc1ccc(CCNC(=O)c2nnn(CC(=O)Nc3ccc(C)cc3)c2N)cc1OCC | inconclusive: 53.5%
CCCOc1cccc(C(=O)O)c1 | inactive: -5.1%
CCNc1nc(-c2cc(C)n(Cc3ccco3)c2C)cs1 | inactive: 71.4%
CCCOC(=O)C1=C(C)N(C)C(=O)NC1c1cc2c(cc1[N+](=O)[O-])OCO2 (centres undefined) | inconclusive: 98.8%
CC1(c2ccccc2)NC(=O)N(Cc2ccc([N+](=O)[O-])cc2)C1=O (centres undefined) | inactive: -5.3%
Cn1c(N)c(S(=O)(=O)NCc2ccccc2Cl)c(=O)n(C)c1=O | inconclusive: 70.2%
Cc1ccc(C2=[N+]([O-])C(C)(C)CC2)cc1 | inconclusive: 60.9%
COc1ccc(-n2c(=S)[nH]c3cc(C(=O)O)ccc3c2=O)cc1 | inconclusive: 74.9%
CC(=O)Nc1ccc(NC(=O)CN(C)S(=O)(=O)c2ccc3nc(C)sc3c2)cc1 | inconclusive: 53.7%
CC(C)OP(=O)(OC(C)C)C(O)c1ccc(N(C)C)cc1 (centres undefined) | inconclusive: 75.3%
C=CCN1C(=O)N/C(=C/c2ccc(N3CCOCC3)o2)C1=O | inactive: 55.4%
COc1ccc(CCNS(=O)(=O)c2ccc(Br)s2)cc1 | inconclusive: 51.6%
Cc1ccc(C(=O)Nc2scc(-c3ccccc3)c2C(=O)O)o1 | inconclusive: 78.7%
CC(C)c1ccc(NC(=O)N2CCN(S(=O)(=O)c3ccccc3)CC2)cc1 | inconclusive: 52.1%
O=C(NNC(=O)c1ccccc1-n1cccc1)c1ccc(Cl)c(Cl)c1 | inconclusive: 51.3%
CSc1nc(N2CCN(c3ccccc3)CC2)cc(N2CCN(c3ccccc3)CC2)n1 | inactive: 18.7%
COc1ccc(C(=O)NNC(=O)c2cc3cccc(OC)c3oc2=O)cc1 | inconclusive: 51.2%

SMILES | inhibition
Cc1ccc(NC2SC(=O)N(CC(=O)O)C2=O)cc1 (centres undefined) | inactive: -7.4%
O=C1N=C(N2CCN(c3ccccc3)CC2)S/C1=C/c1ccco1 | inactive: -5%
CCOC(=O)c1c(C)nc(C)c2c(=O)oc3ccccc3c12 | inconclusive: 60.2%
CN(C)CCNc1oc(/C=C/c2ccccc2)nc1C#N | inconclusive: 56.9%
COCCCn1c(C(=O)NCCC2=CCCCC2)cc2c(=O)n3cccc(C)c3nc21 | inconclusive: 59%
Cn1c(=Nc2ccc(N3CCOCC3)cc2)ccc2ccccc21 | inconclusive: 89.8%
CNC(=S)N(CCc1ccccc1)Cc1cc2cc(OC)c(OC)cc2[nH]c1=O | active: 65.8%
COc1ccc(S(=O)(=O)Nc2cc(C(=O)NC3CCCCCC3)ccc2N2CCOCC2)cc1 | inconclusive: 63.1%
CC(=O)NC(c1ccccc1)c1c(O)ccc2ccccc12 (centres undefined) | inconclusive: 58.8%
O=C(NCc1cccc(F)c1)C1CCC(=O)N(C2CCCC2)C1 (centres undefined) | inconclusive: 59.7%
Cc1ccccc1-c1nc(CS(=O)CC(=O)NCCc2ccc(Cl)cc2)c(C)o1 (centres undefined) | inconclusive: 62.1%
Cc1nc(C(=O)NCC(=O)c2ccccc2)c(C(F)(F)F)o1 | inconclusive: 55.5%
Cc1cc(Cl)c(OCCCNC2CCCC2)c(Br)c1 | inconclusive: 60.1%
O=[N+]([O-])c1ccc(Nc2nc(NCCO)nc(N3CCCC3)n2)cc1 | inactive: 5.1%
Brc1ccc(C2=Nc3cccc4cccc(c34)N2)o1 | inactive: -20.5%
COc1ccc(CNC(=O)C2CCN(C(=O)[C@@H](CC(C)C)NC(=O)OC(C)(C)C)CC2)cc1 | inconclusive: 67.2%
O=C(CSc1ncnc2nc[nH]c12)c1ccccc1 | inconclusive: 56.8%
CC(=O)NC1=NC(=O)/C(=C/N2CCCCC2)S1 | inconclusive: 62.6%
N#Cc1cc2cc3c(cc2nc1N1CCOCC1)OCO3 | inconclusive: 59.2%
CC(C)c1csc(CN2CCC(CO)(Cc3cccc(F)c3)CC2)n1 | inactive: -1.1%

SMILES | inhibition
CN(c1ccccc1)c1nc(N)c([N+](=O)[O-])c(N2CCOCC2)n1 | inconclusive: 69.4%
COc1ccc(-c2cc(C(F)(F)F)nc(-n3ccnc3)n2)cc1 | inconclusive: 54.6%
CCOc1ccc(C(C)(C)C)cc1S(=O)(=O)N1CC(C)OC(C)C1 (centres undefined) | inconclusive: 72.7%
CCC(C(=O)N1CCOCC1)n1nc(C)c2sc3ccccc3c2c1=O (centres undefined) | inactive: 12.1%
CCC(C(=O)Nc1cc(Cl)ccc1OC)c1ccccc1 (centres undefined) | inconclusive: 88.6%
c1coc(-c2nc3ccccc3nc2-c2ccco2)c1 | inconclusive: 85.2%
Cc1cccc(OCC(=O)Nc2ccccc2C(=O)N2CCOCC2)c1 | inconclusive: 50.2%
Cc1nn(C)c(Cl)c1CN1CCC(CO)(CC2CCCCO2)CC1 (centres undefined) | inactive: 6.5%
C1=C(c2ccc(-c3ccccc3)cc2)Nc2ncnn2C1c1ccco1 (centres undefined) | inconclusive: 56.9%
N#CCC(=O)Nc1ccc(C(=O)OCC(=O)c2ccc3c(c2)OCCO3)cc1 | inconclusive: 52.4%
Cc1cc(Cl)c2oc(C(=O)NCCN3CCOC3=O)c(C)c2c1 | inconclusive: 94.9%
CCCCOc1ccc(C(=O)Oc2cc(C)[nH]c(=O)c2[N+](=O)[O-])cc1 | inconclusive: 90%
Cc1ccc(C)c(OCc2ccc(C(=O)NN)o2)c1 | inconclusive: 59.4%
CN(C)C=Nc1ccc2nn(-c3ccccc3)nc2c1 | inconclusive: 58.9%
O=C(NC1CCc2ccccc21)c1cc(COc2c(F)cccc2F)on1 (centres undefined) | inconclusive: 55.2%
COc1cccc2nc3cc(C)c(C)cc3nc12 | inactive: 23.4%
CCC(C)NS(=O)(=O)c1ccc(NC(=O)C2CCN(C(=O)c3ccco3)CC2)cc1 (centres undefined) | inconclusive: 76.3%
O=C(Nc1ccc(-c2nc3ccccc3s2)c(O)c1)C1=COCCO1 | inconclusive: 66.6%
CCOC(=O)CNC(=O)c1cc2c(=O)[nH]c3ccc(C)cc3c2s1 | inconclusive: 52.3%

An excerpt from further up, for reference:
SMILES | inhibition
c1coc(-c2nc3ccccc3nc2-c2ccco2)c1 | inconclusive: 85.2%
Cc1cccc(OCC(=O)Nc2ccccc2C(=O)N2CCOCC2)c1 | inconclusive: 50.2%
